Where “and” joins values, the source holds several entries; their conditions need not be identical. Equal values may be shown once. The list shows a part of the results. Shown are side measurements of this screen, not its main read-out; they come without a call.
target: Estrogen receptor (Homo sapiens) (UniProt P03372); experiment: ERα coactivator peptide binding inhibitors, primary screen, biochemical, LOPAC library, TR-FRET (AID 694); settings: TR-FRET ERalpha-coactivator peptide binding, at 15 µM, stronger effect = higher value;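 further: receptor was agonist-bound with estradiol present during the assay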

By UniProt entry, the sequences of proteins in these tests, tags left out.
UniProt P03372, whole entry, looked up: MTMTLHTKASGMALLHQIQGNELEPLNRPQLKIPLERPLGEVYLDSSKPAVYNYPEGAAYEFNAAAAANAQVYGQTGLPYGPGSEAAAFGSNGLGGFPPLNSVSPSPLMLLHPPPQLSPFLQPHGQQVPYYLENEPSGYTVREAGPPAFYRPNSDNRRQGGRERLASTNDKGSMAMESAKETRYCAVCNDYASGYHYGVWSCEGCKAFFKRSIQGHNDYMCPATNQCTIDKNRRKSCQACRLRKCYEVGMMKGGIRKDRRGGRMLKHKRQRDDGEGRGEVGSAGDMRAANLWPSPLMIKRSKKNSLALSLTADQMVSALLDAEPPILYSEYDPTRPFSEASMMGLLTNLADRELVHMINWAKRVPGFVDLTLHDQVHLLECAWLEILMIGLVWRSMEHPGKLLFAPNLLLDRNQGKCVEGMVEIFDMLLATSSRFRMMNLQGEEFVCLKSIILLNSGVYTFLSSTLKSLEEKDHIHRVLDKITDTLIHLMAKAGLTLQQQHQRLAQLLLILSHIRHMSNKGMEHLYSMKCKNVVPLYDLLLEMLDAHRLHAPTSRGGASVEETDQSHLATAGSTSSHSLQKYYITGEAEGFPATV

Row | Compound | inhibition
1 | Cc1cn[nH]c1 | 16%
2 | OC[C@H]1O[C@@H](n2cnc3c(NCCc4ccccc4)ncnc32)C(O)[C@H]1O (some centres not stated) | 1.69%
3 | C=CC(N)CCC(=O)O (configuration not stated) | 0.25%
4 | NNCCc1ccccc1 | -6.26%
5 | NC1(C(=O)O)CCCCC1 | -2.67%
6 | COc1ccc(-c2ccc(N)[n+](CCCC(=O)O)n2)cc1 | -1.55%
7 | CCn1c(=O)c2[nH]c(-c3ccccc3)nc2n(CC)c1=O | -1.75%
8 | N#Cc1c(-c2ccccc2)no[n+]1[O-] | -0.29%
9 | CN1CCC(=C2c3ccccc3C=Cc3ccccc32)CC1 | -3.96%
10 | CN1CCN(CC/C=C2/c3ccccc3Sc3ccc(S(=O)(=O)N(C)C)cc32)CC1 | 6.1%
11 | CC(C)(C=O)Cc1cc(C(C)(C)C)c(O)c(C(C)(C)C)c1 | 2.47%
12 | CC(/C=C/c1cccc(Oc2ccc(F)cc2)c1)N(O)C(N)=O (configuration not stated) | 2.1%
13 | c1ccc([C@H]2CN3CCSC3=N2)cc1 | 3.3%
14 | Cc1ccc([N+](=O)[O-])cc1S(=O)(=O)N(C)C | -0.41%
15 | O=[N+]([O-])c1cccc2cn[nH]c12 | -4.86%
16 | COc1ccccc1OCC(O)CN1CCN(CC(=O)Nc2c(C)cccc2C)CC1 (configuration not stated) | -5.46%
17 | Nc1ncnc2c1c(-c1ccc(Oc3ccccc3)cc1)cn2C1CCCC1 | 0.56%
18 | C=CC1(C)CC(=O)C2(O)C(C)(O1)C(OC(C)=O)C(O)C1C(C)(C)CCC(O)C12C (configuration not stated) | 2.99%
19 | COc1cc2c(cc1C(F)(F)F)N(C(=O)Nc1cc(F)cc(-c3cccnc3)c1)CC2 | 2.11%
20 | CCC(C)N(C)C(=O)c1cc2ccccc2c(-c2ccccc2Cl)n1 (configuration not stated) | -1.26%
21 | Nc1nc2ccc(Cl)cc2c2nc(-c3ccco3)nn12 | 1.19%
22 | CCC(CO)Nc1nc(NCc2ccccc2)c2ncn(C(C)C)c2n1 (configuration not stated) | 0.75%
23 | O=C(/C=C/c1ccc(O)c(O)c1)OCCc1ccccc1 | -1.26%
24 | CCn1cc(C(=O)O)c(=O)c2ccc(Cc3ccccc3)nc21 | 2.86%

Some of the entries so far, in markdown.

| Row | Compound | inhibition |
| --- | --- | --- |
| 2 | OC[C@H]1O[C@@H](n2cnc3c(NCCc4ccccc4)ncnc32)C(O)[C@H]1O (some centres not stated) | 1.69% |
| 3 | C=CC(N)CCC(=O)O (configuration not stated) | 0.25% |
| 4 | NNCCc1ccccc1 | -6.26% |
| 5 | NC1(C(=O)O)CCCCC1 | -2.67% |
| 6 | COc1ccc(-c2ccc(N)[n+](CCCC(=O)O)n2)cc1 | -1.55% |

Later entries

Row | Compound | inhibition
25 | CC[C@H](C)C(=O)O[C@H]1CCC=C2C=C[C@H](C)[C@H](CC[C@@H]3C[C@@H](O)CC(=O)O3)[C@H]21 | -0.41%
26 | CC(=O)[C@]1(O)Cc2c(O)c3c(c(O)c2[C@@H](O[C@H]2C[C@H](N)[C@H](O)[C@H](C)O2)C1)C(=O)c1ccccc1C3=O | -11.1%
27 | CN1CCN(CCCN2c3ccccc3Sc3ccc(Cl)cc32)CC1 | 9.97%
28 | Cc1ccc(Cl)c(Nc2ccccc2C(=O)O)c1Cl | -6.42%
29 | CCn1nc(C(=O)O)c(=O)c2cc3c(cc21)OCO3 | -6.21%
30 | Cc1cc(C)c(/C=C2\C(=O)Nc3ccccc32)[nH]1 | -3.95%
31 | CCCC(=O)NCCc1c2n(c3ccc(OC)cc13)CCCc1ccccc1-2 | -0.15%
32 | CCn1ccnc1CC1COc2ccccc2O1 (configuration not stated) | -0.18%
33 | CCOC(=O)C12CC1/C(=N/O)c1ccccc1O2 (configuration not stated) | -5.97%
34 | N[C@H](C(=O)O)c1cc(O)cc(O)c1 | 3.16%
35 | Cc1cccc(C#Cc2ccccc2)n1 | -5.26%
36 | CC(C)(C)[C@]1(O)CCN2C[C@H]3c4ccccc4CCc4cccc(c43)[C@@H]2C1 | 1.27% and 2.06%
37 | Nc1nc2[nH]c(=O)cnc2c(=O)[nH]1 | -1.79%
38 | Nc1ccc(S(=O)(=O)Nc2ccnn2-c2ccccc2)cc1 | 6.12%
39 | O=C(O)C1=CCCNC1 | -7.61%
40 | NCCNC(=O)c1ncsc1-c1cccc(F)c1 | -0.21%
41 | COc1ccccc1N1CCN(CCCCNS(=O)(=O)c2cccc3c(N(C)C)cccc23)CC1 | -1.2%
42 | NC(=O)N1c2ccccc2C=Cc2ccccc21 | -2.49%
43 | N=C1Sc2ccccc2C2=NCCCN12 | 9.23%
44 | CNC(=O)c1cc2c(cn1)[nH]c1ccccc12 | -5.81%
45 | COc1ccc(NC(=O)/C=C/c2ccc(Cl)cc2)cc1 | 5.78%
46 | CCC(=O)N1CCN(C(=O)c2ccccc2)CC1 | 1.98%
47 | CC(=O)c1ccc(S(=O)(=O)NC(=O)NC2CCCCC2)cc1 | -0.49%
48 | CCCNC(C)C(=O)Nc1ccccc1C (configuration not stated) | 4.81%

Row | Compound | inhibition
49 | CNc1ncnc2c1ncn2[C@H]1C[C@H](OP(=O)(O)O)[C@@H](COP(=O)(O)O)O1 | 0.31%
50 | O=C(N[C@@H](Cc1ccccc1)C(=O)CCl)OCc1ccccc1 | 8.56%
51 | CC(COc1ccc(/C=C/c2ccccc2)cc1)[N+](C)(C)C (configuration not stated) | 7.87%
52 | c1ccc(C2CN3CCSC3=N2)cc1 (configuration not stated) | 3.61%
53 | CCNC(=O)N1CCN(CCCC(c2ccc(F)cc2)c2ccc(F)cc2)CC1 | -1.44%
54 | Fc1ccc(C(OCCCc2cnc[nH]2)c2ccc(F)cc2)cc1 | 0.61%
55 | O=C1CCC(c2ccc(-n3ccnc3)cc2)=NN1 | 7.46%
56 | COc1cc2c(cc1OC)-c1cc(=Nc3c(C)cc(C)cc3C)n(C)c(=O)n1CC2 | 6.66%
57 | NCCCCCCCCCCN | -0.23%
58 | OCCN1CCN(CCCN2c3ccccc3Sc3ccc(Cl)cc32)CC1 | 0.17%
59 | C#C[C@]1(O)CC[C@H]2[C@@H]3CCC4=Cc5oncc5CC4(C)[C@H]3CCC21C (some centres not stated) | -1.88%
60 | CCC1(O)CC2CN(CCc3c([nH]c4ccccc34)[C@@](C(=O)OC)(c3cc4c(cc3OC)N(C)C3[C@]45CCN4CC=C[C@@](CC)([C@@H](OC(C)=O)[C@]3(O)C(=O)OC)[C@H]45)C2)C1 (some centres not stated) | -0.77%
61 | O=c1oc(Cl)c(Cl)c2ccccc12 | -3.11%
62 | COc1nc(C)nc(Cl)c1NC1=NCCN1 | -1.51%
63 | N[C@H](CCC(=O)NCS(=O)(=O)O)C(=O)O | -0.86%
64 | N#CC(C#N)=C(N)/C(C#N)=C/c1ccc(O)cc1 | 1.29%
65 | NCCS(=O)(=O)O | 1.37%
66 | CCN(CC)CCNC(=O)c1cc(S(C)(=O)=O)ccc1OC | -0.06%
67 | C#CCN(C)Cc1ccccc1 | -1.02%
68 | O=c1[nH]c2ccccc2c2ccccc12 | -1.72%
69 | O=C(NCCNCC(O)COc1ccc(O)cc1)N1CCOCC1 (configuration not stated) | -0.58%
70 | COc1ccc2[nH]cc(CCNC(C)=O)c2c1 | 0.03%
71 | O=Nc1c(-c2c(O)[nH]c3ccccc23)[nH]c2ccccc12 | -6.98%
72 | COc1ccc(C(=O)NCc2cccnc2)cc1C(=O)NCc1cccnc1 | -0.25%
